Data from paper PMC12040169 (PLOS Biology, 2025).
The other results are listed elsewhere or left out.

These compounds were tested on T1, CTL2-GFP (C. trachomatis L2/434/Bu, GFP-expressing). Conditions: bulk GFP, single well; 28.5 h, 10 µM; inhibitor.
T1 construct: L2/434/Bu, GFP-expressing
Design: species or system HeLa; Intracellular C. trachomatis growth in HeLa cells, bulk GFP fluorescence relative to DMSO

SMILES | % of control remaining [%]
COC(=O)c1ccc(NC(=O)CN(c2ccc(F)c(Cl)c2)S(C)(=O)=O)cc1 [CBK267657] | 106.394
CC(=O)Nc1cc(Cl)ccc1OS(=O)(=O)c1ccc(Cl)cc1 [CBK264992] | 116.464
Cc1ccccc1OCCNS(=O)(=O)c1cccc([N+](=O)[O-])c1 [CBK264195] | 100
Cc1noc(C)c1S(=O)(=O)Nc1ccccc1C(=O)O [CBK042371] | 104.792
Cc1ccccc1-c1ccc(C(=O)NC2CCCCC2)c(NCc2cccnc2)n1 [CBK076159] | 103
O=C(c1[nH]c2ccccc2c1NS(=O)(=O)Cc1ccccc1[N+](=O)[O-])N1CCOCC1 [CBK050079] | 89.2035
CC(=O)c1c(C(C)=O)c(C)n(-c2ccc(C(=O)O)cc2)c1C [CBK287036] | 129.002
COC(=O)CCSc1nc(C)nc2c1c(=O)n(C)c(=O)n2CC(C)C [CBK305891] | 105.814
Fc1ccc(COc2ccc(Cl)cc2CNCc2ccccn2)cc1 [CBK269899C] | 150.554
O=C(O)c1ccc2c(c1)C(=O)N(C1=NCCS1)C2=O [CBK021809] | 130.404
O=S(=O)(Nc1cccc(-c2cnco2)c1)c1ccc(Br)cc1C(F)(F)F [CBK067118] | 123.969
Cc1cc(NS(=O)(=O)c2ccc(Br)cc2C(F)(F)F)n(C)n1 [CBK067255] | 113.935
COc1cccc(OCC(O)CN(C)S(=O)(=O)O)c1 (centres unmarked) [CBK027121N] | 120.633
Cc1ccc(C(=O)NNC(=O)/C=C\C(=O)O)cc1 [CBK261842] | 108.551
O=C(NCCc1cccnc1)C1CCCN(c2nc3c(-c4ccccc4)csc3c(=O)[nH]2)C1 (centres unmarked) [CBK215495] | 159.697
C#CCNC(=O)C1CCN(c2nc3ccccc3n2C)CC1 [CBK283956] | 140.481
CC(C)Nc1cncc(SCCN(C)C)n1 [CBK105292] | 119.686
Cc1ccc(C)c(NC(=O)C(Cc2ccccc2)N2C(=O)c3cc(Cl)c(Cl)cc3C2=O)c1 (centres unmarked) [CBK264232] | 116.057
CCOC(=O)C1CCCN(CCC(=O)Nc2cc(C)ccc2C)C1 (centres unmarked) [CBK264287C] | 100
Cc1c(Cl)c(C(F)(F)F)nn1CCCNC(=S)Nc1ccc(S(N)(=O)=O)cc1 [CBK267113] | 93.6949
Cc1n[nH]c(-c2ccccc2NS(=O)(=O)c2cnn(C(C)C)c2)n1 [CBK306377] | 117.312
COC(=O)[C@@H]1Cc2ncn(C)c2CN1S(=O)(=O)c1cccs1 [CBK288992] | 116.312
COC(=O)c1ccc(CN2CCCC2)cc1 [CBK029023] | 187.315
O=C(CCn1c(C(F)(F)F)cc2cccnc21)N1CCCC1 [CBK284962] | 100.347
CCc1c(C)nc2c(C(=O)N3CCCC3COC)cnn2c1C (centres unmarked) [CBK162146] | 107.644
Cc1cc(C)n(CCC(=O)N2CCC(c3ccncc3)CC2)n1 [CBK283529] | 100.607
COc1ccc(OC(C)C(=O)O/N=C(\N)c2ccccn2)cc1 (centres unmarked) [CBK266669] | 152.318

SMILES | % of control remaining [%]
CC(C)(C)NC(=O)N/N=C/c1[nH]ncc1Br [CBK017439] | 109.947
CCN(CC)C(=O)CNS(=O)(=O)c1ccc(OC)c(OC)c1 [CBK034499] | 100.93
COc1ccc(F)cc1S(=O)(=O)N1CCCN(S(=O)(=O)c2cc(F)ccc2OC)CC1 [CBK266555] | 123.762
C[C@@H](c1ccccc1)N1C(=O)[C@@H]2CN(C(=O)COCC(=O)O)CCN2C1=O [CBK289636] | 146.907
CCn1c(CC2CCN(c3nc(C)cc(C)c3C#N)CC2)nn(C)c1=O [CBK307027] | 98.8127
Cc1cc(CN2CCN(C(C)c3nc(C(C)(C)C)no3)CC2)no1 (centres unmarked) [CBK305641] | 124.884
Nc1ncc(-c2cncnc2)nc1NCC1CCOCC1 [CBK063877] | 182.73
Oc1cccc(C(O)CNCc2ccc(OCc3ccc(Cl)cc3Cl)cc2)c1 (centres unmarked) [CBK267621C] | 99.0386
O=C(O)C[C@]1(C(=O)NC2CCCCCC2)CC(c2ccc(Cl)cc2)=NO1 [CBK286716] | 91.2268
CNS(=O)(=O)c1ccc(C)c(C(=O)N(C)Cc2cnn(C)c2)c1 [CBK304026] | 99.8982
Nc1ccc(-c2ncccc2O)cc1 [CBK262937C] | 113.803
O=C1N=C(Nc2cccc(O)c2)S/C1=C1\C(=O)Nc2ccccc21 [CBK265549] | 88.7407
Cc1nn(CC(=O)N2CCCC2)c(=O)c2cc3ccsc3n12 [CBK284057] | 145.172
O=C(NCCCn1ccnc1)c1cc(-c2ccc(Br)cc2)nc2ccccc12 [CBK262645] | 17.1893
CN(C)C(=O)[C@@]1(O)CCC2(c3ccc(Cl)cc3)CCCN(C)C2C1 (some centres unmarked) [CBK005234] | 87.2717
COc1cccc(-c2csc(NS(=O)(=O)c3ccc(C)c(C(=O)O)c3)n2)c1 [CBK299803] | 161.073
CC1=C[C@@H](CNS(C)(=O)=O)[C@H](C(C)C)C[C@H]1CC(=O)N1CCOCC1 [CBK289050] | 138.352
CCCCSc1nnc(-c2cc3c(C(F)(F)F)nn(C)c3s2)n1C [CBK019526] | 143.763
CC(C)C(=O)Nc1cc2cccnc2nc1-c1ccccc1 [CBK073647] | 191.079
Nc1nc(O)cc(C2CCN(CCOc3ccccc3F)C2)n1 (centres unmarked) [CBK304726] | 123.708
CC(C)(C)OC(=O)NC1CCC(NCc2ccccc2Br)CC1 (centres unmarked) [CBK056684] | 109.005
CSCC(=O)N1C[C@@H]2C[C@H](C1)c1c(-c3ccc(NC(C)=O)cc3)ccc(=O)n1C2 [CBK289200] | 107.863
Nc1cccc(-c2nc(NC(=O)c3ccncc3)cnc2-c2ccc(F)c(Cl)c2)c1 [CBK037573] | 74.2048
CCOc1ccccc1CN(C)c1cc(C2CC(N)C2)nc(N)n1 (centres unmarked) [CBK307308] | 159.106
COc1ccc(CCNCC2OCCc3cccc(OC)c32)cc1OC (centres unmarked) [CBK024032C] | 105.965
OCCN(CCO)c1cncc(-c2cccc3ccccc23)n1 [CBK065812] | 120.792
O=C(O)CCc1ccc(-c2ccc(F)cc2)n1CC1CCCO1 (centres unmarked) [CBK268988] | 168.423

SMILES | % of control remaining [%]
Cc1cc(/C=N/NC(=O)C(=O)NCc2ccccn2)c(C)n1-c1cccc(Br)c1 [CBK263815] | 112.153
Cc1ccccc1NC(=O)Nc1ccc(OCc2ccccc2)cc1 [CBK262861] | 121.939
COc1ccc2[nH]c3c(=O)n(C)cnc3c2c1 [CBK025870] | 105.02
COc1ccc(CCNC(=O)N2CCCC(C(=O)O)C2)cc1OC (centres unmarked) [CBK161354] | 102.519
CN(C)C[C@@H]1Cc2cccc3cccc(c23)[C@@H]1O [CBK005877C] | 100.058
COCCN(Cc1cn2cccc(C(=O)OC)c2n1)Cc1ccco1 [CBK305366] | 125.997
Cn1c(=O)[nH]c(=O)c2c1nc(CN1CCOCC1)n2Cc1c(F)cccc1Cl [CBK270085] | 167.22
CN(CCc1ccncc1)C(=O)c1cc2ccc(F)cc2[nH]1 [CBK283215] | 127.84
Fc1ccc(COc2ccccc2CNCCN2CCOCC2)cc1 [CBK278150C] | 164.147
CC(=O)Nc1ccc(-c2cncc(Nc3ccc4c(c3)OC(F)(F)C(F)(F)O4)n2)cc1 [CBK065726] | 157.641
O=c1c(O)c(-c2ccc(F)cc2)oc2ccccc12 [CBK288369] | 122.246
C=CCOc1ccc(CN(C)Cc2nc3cc(C(=O)O)ccc3c(=O)[nH]2)cc1 [CBK295156] | 163.714
CCCNC(=O)c1nn2c(C(F)(F)F)cc(-c3ccccc3)nc2c1Cl [CBK051499] | 81.9662
O=C(CSc1ncn[nH]1)N/N=C/c1cn(-c2ccccc2)nc1-c1ccccc1 [CBK262850] | 81.8016
O=C1c2ccccc2C(=O)N1c1ccc(S(=O)(=O)NCCCO)c2ccccc12 [CBK262509] | 117.818
CCC(O)c1nc(CCSC)nn1-c1cc(=O)n(C)c2ccccc12 (centres unmarked) [CBK307711] | 111.01
CCCN(CC1CCCO1)C(=O)c1cc2ccc(OC)cc2n1C (centres unmarked) [CBK282139] | 133.839
COCCCNC(=O)Cn1ccc2ccnc(-c3cccs3)c21 [CBK282303] | 101.695
c1cncc(COc2nccnc2N2CCCC2)c1 [CBK115890] | 139.166
CCc1nccn1CCCNC(=O)Nc1cccnc1 [CBK306736] | 145.758
O=C1Nc2ccccc2Oc2ccc(S(=O)(=O)N3CCOCC3)cc21 [CBK269807] | 101.334
CCc1nn(Cc2ccncc2)c(=O)c2cc3sc(C)cc3n12 [CBK284140] | 126.444
COc1ccc(OC(=O)c2cc(S(=O)(=O)N3CCOCC3)ccc2Cl)cc1 [CBK261655] | 100
Clc1ccc2c(c1)OCC[C@@H]2Oc1cncc(N2CCNCC2)n1 [CBK172313G] | 130.975
Cn1cc(C(=O)NC(Cc2ccsc2)c2nccs2)ccc1=O (centres unmarked) [CBK285140] | 122.547
O=C(Nc1ccc(N2CCN(C(=O)c3cccs3)CC2)cc1)c1ccc(-c2cc3ccccc3oc2=O)cc1 [CBK267340] | 139.109

Quoted at random: six entries already listed.
SMILES | % of control remaining [%]
CN(CCc1ccncc1)C(=O)c1cc2ccc(F)cc2[nH]1 [CBK283215] | 127.84
CCc1nn(Cc2ccncc2)c(=O)c2cc3sc(C)cc3n12 [CBK284140] | 126.444
Nc1ccc(-c2ncccc2O)cc1 [CBK262937C] | 113.803
COCCN(Cc1cn2cccc(C(=O)OC)c2n1)Cc1ccco1 [CBK305366] | 125.997
COc1ccc2[nH]c3c(=O)n(C)cnc3c2c1 [CBK025870] | 105.02
O=C(O)C[C@]1(C(=O)NC2CCCCCC2)CC(c2ccc(Cl)cc2)=NO1 [CBK286716] | 91.2268
